PubChem BioAssay AID540276 (National Center for Advancing Translational Sciences (NCATS), 2011)
Among all 300,000 compounds or so, about 5,400 (1.8%) were called active. Inconclusive results, whose numbers are uncertain, are shown with a selection of clear calls. Calls come from the whole dose curve; tested in HEK293 cells. A potency beside an inconclusive call is a rough fit, not a confirmed value.

Test: qHTS for inhibitors of binding or entry into cells for Marburg Virus
Settings: Marburg virus pseudotyped entry inhibition, cell reporter; series mostly up to 37.8 µM
Potency is the fitted concentration of half-maximal effect.

Row | SMILES | Potency
1 | COc1ccc(N2CCN(C(=O)c3ccc(NS(=O)(=O)c4cccc(F)c4)cc3)CC2)cc1 | inactive
2 | CCC(CC)COC(=O)C1=C(C)NC(=O)NC1c1ccc2c(c1)OCO2 (stereo not given) | inconclusive: 35.5 µM [inhibitor, partial curve, poor fit]
3 | O=C(CCS(=O)(=O)Cc1ccccc1)N1CCc2ccccc2C1 | inactive
4 | COC(=O)C1CCN(CC(=O)Nc2ccccc2Sc2ccccc2)CC1 | inconclusive: 25.1 µM [inhibitor, partial curve, poor fit]
5 | O=C(Oc1c(Cl)cc(Cl)c2cccnc12)N1CCCCC1 | inactive
6 | CCN(CC)S(=O)(=O)c1ccc(OC)c(NC(=O)c2cc(=O)[nH]c3ccccc23)c1 | inactive
7 | Cc1ccc(CCNC(=O)NC(C)(C)C)cc1 | inactive
8 | CCOC(=O)c1c(C)[nH]c(C(=O)OCc2ccc(F)cc2)c1C | inconclusive: 6.31 µM [activator, partial curve, poor fit]
9 | O=S(=O)(NC1CCCCC1)c1cccs1 | inconclusive: 0.562 µM [activator, full curve, poor fit]
10 | Cc1nc2ccccc2c(=O)n1-c1cc(F)ccc1F | inconclusive: 1 µM [inhibitor, single point]
11 | COc1cccc(CNC(=O)c2cc3c(s2)-c2c(C)cccc2OC3)c1 | inconclusive: 31.6 µM [inhibitor, single point]
12 | CCOc1ccc(-n2c(SCC(=O)Nc3ccc(OC)cc3)nc3sc4c(c3c2=O)CCN(C)C4)cc1 | inconclusive: 0.708 µM [inhibitor, full curve, poor fit]
13 | COc1ccc(-c2nc(CNS(=O)(=O)c3ccccc3)cs2)cc1 | inconclusive: 6.31 µM [activator, single point]
14 | CCc1cc2cc(C)ccc2nc1SCC(=O)N1CCN(C(=O)c2ccco2)CC1 | inactive
15 | CC1CCCN(CCCNS(=O)(=O)c2cc(Br)cc3c2N(C(=O)C2CC2)CC3)C1 (stereo not given) | inconclusive: 3.98 µM [inhibitor, single point]
16 | CCn1c(CNC(=O)C23CC4CC(CC(C4)C2)C3)nnc1SCC(=O)Nc1ccccc1 | inactive
17 | Cc1c(C#N)c(NC(=O)CCl)n(Cc2ccccc2)c1C | inconclusive: 20 µM [inhibitor, partial curve, poor fit]
18 | Cc1ccc(Sc2ccc(NC(=O)CCl)cc2)cc1C | inconclusive: 2.06 µM [inhibitor, partial curve, poor fit]
19 | COc1cc2ncc(C(=O)c3ccccc3)c(N3CCN(Cc4ccccc4)CC3)c2cc1OC | inconclusive: 25.1 µM [inhibitor, single point]
20 | CC(C)Nc1oc(-c2cccc3ccccc23)nc1C#N | inactive
21 | c1ccc(-c2csc3ncnc(NCC4COc5ccccc5O4)c23)cc1 (stereo not given) | active: 2.24 µM
22 | O=C(N/N=C/c1c[nH]c2ccccc12)c1ccc(O)c(O)c1 | inactive
23 | COc1ccc(N(Cc2ccccc2)S(=O)(=O)c2ccc(C)cc2)cc1 | inconclusive: 7.94 µM [inhibitor, partial curve, poor fit]

Row | SMILES | Potency
24 | CC(OC(=O)c1ccccc1NS(=O)(=O)c1cccc(N)c1)C(=O)N(C)Cc1ccccc1 (stereo not given) | inconclusive: 29.1 µM [inhibitor, single point]
25 | COc1ccc(C(=O)NCC(=O)N/N=C/c2ccc([N+](=O)[O-])o2)cc1OC | inconclusive: 22.4 µM [inhibitor, single point]
26 | CC(=O)c1ccc(NC(=S)Nc2ccn(Cc3ccc(Br)cc3)n2)cc1 | inconclusive: 1.58 µM [inhibitor, partial curve, poor fit]
27 | Cc1nc2ccccc2c2c(N)c3ccccc3n12 | inactive
28 | O=C(OCCN1C(=O)c2ccccc2C1=O)c1cccc(OC(F)F)c1 | inconclusive: 4.47 µM [activator, full curve, poor fit]
29 | OCCOCCNc1ncnc2c1cnn2-c1ccccc1 | inactive
30 | COc1ccc(CC(=O)Nc2nnc(SCC(=O)NCc3ccco3)s2)cc1OC | inconclusive: 1.26 µM [inhibitor, single point]
31 | CCOC(=O)CN1C(=O)NC(c2cccc(C(F)(F)F)c2)C(C(C)=O)=C1C (stereo not given) | inconclusive: 0.0237 µM [activator, full curve, poor fit]
32 | Cc1oc(-c2cc(Cl)cc(Cl)c2)cc1C(=O)NCCc1ccccc1 | inconclusive: 0.398 µM [inhibitor, partial curve, poor fit]
33 | O=C(Nc1ccc(C(=O)N2CCCc3ccccc32)cc1)c1cccs1 | active: 11.2 µM
34 | Nc1ccc2oc(-c3ccccn3)nc2c1 | inactive
35 | CC(C)(C)C(=O)NCCc1nc2ccccc2n1CCCCOc1ccc(Cl)cc1 | inconclusive: 35.5 µM [inhibitor, single point]
36 | CCOC(=O)CSc1nnc(CNc2ccc(Cl)cc2)n1-c1ccccc1 | inactive
37 | NNc1nc(-c2ccccc2)cc(-c2ccc(Br)cc2)n1 | inconclusive: 22.4 µM [inhibitor, partial curve, poor fit]
38 | CCN1CCN(c2ccc(NC(=O)c3ccc([N+](=O)[O-])o3)cc2Cl)CC1 | inconclusive: 0.891 µM [inhibitor, full curve, poor fit]
39 | CN(C)/C=C1\C(=O)N(c2ccc([N+](=O)[O-])cc2)N=C1c1ccccc1 | inactive
40 | COc1cc(SC)ccc1C(=O)Nc1ccc(S(=O)(=O)N2CCCC2)cc1 | inactive
41 | Cc1ccc(NC(=O)Cn2c(=O)n(CCC(=O)N3CCc4ccccc4C3)c(=O)c3ccccc32)cc1 | inactive
42 | COc1ccc(OCCNc2cc(N3CCCCC3)ccc2[N+](=O)[O-])cc1 | inconclusive: 35.5 µM [inhibitor, partial curve, poor fit]
43 | COc1ccc(C(=O)OCC(=O)c2cc(OC)ccc2OC)c(OC)c1 | inconclusive: 11.2 µM [inhibitor, partial curve, poor fit]
44 | CCN(c1ccccc1)S(=O)(=O)c1cccc(C(=O)NCCOc2ccccc2OC)c1 | inconclusive: 35.5 µM [inhibitor, single point]
45 | CCN(CC)CCN1C(=O)C(=O)/C(=C(/O)c2ccc(S(=O)(=O)N3CCOCC3)cc2)C1c1ccc(C(C)(C)C)cc1 (stereo not given) | inconclusive: 15.8 µM [activator, single point]

From compound 27 up to 37, as listed above:
Row | SMILES | Potency
27 | Cc1nc2ccccc2c2c(N)c3ccccc3n12 | inactive
28 | O=C(OCCN1C(=O)c2ccccc2C1=O)c1cccc(OC(F)F)c1 | inconclusive: 4.47 µM [activator, full curve, poor fit]
29 | OCCOCCNc1ncnc2c1cnn2-c1ccccc1 | inactive
30 | COc1ccc(CC(=O)Nc2nnc(SCC(=O)NCc3ccco3)s2)cc1OC | inconclusive: 1.26 µM [inhibitor, single point]
31 | CCOC(=O)CN1C(=O)NC(c2cccc(C(F)(F)F)c2)C(C(C)=O)=C1C (stereo not given) | inconclusive: 0.0237 µM [activator, full curve, poor fit]
32 | Cc1oc(-c2cc(Cl)cc(Cl)c2)cc1C(=O)NCCc1ccccc1 | inconclusive: 0.398 µM [inhibitor, partial curve, poor fit]
33 | O=C(Nc1ccc(C(=O)N2CCCc3ccccc32)cc1)c1cccs1 | active: 11.2 µM
34 | Nc1ccc2oc(-c3ccccn3)nc2c1 | inactive
35 | CC(C)(C)C(=O)NCCc1nc2ccccc2n1CCCCOc1ccc(Cl)cc1 | inconclusive: 35.5 µM [inhibitor, single point]
36 | CCOC(=O)CSc1nnc(CNc2ccc(Cl)cc2)n1-c1ccccc1 | inactive
37 | NNc1nc(-c2ccccc2)cc(-c2ccc(Br)cc2)n1 | inconclusive: 22.4 µM [inhibitor, partial curve, poor fit]
